The list shows only some results of the screen, not a fair sample: it is rich in T/C values a quarter to a half above the control, in often repeated tests (any T/C) and in doses without a T/C. Further doses and runs are listed elsewhere. T/C: endpoint of the treated group in % of that of the vehicle group. Some doses have a count of surviving animals in place of a T/C: the source files T/C as zero there, which appears to mark a toxic dose or a test without result, not a measured value. Some survivor counts are full or nearly so, which does not show that the dose was tolerated: survival well below the control is almost never listed, so the zero probably covers shortened survival too. Survivors were counted at the toxicity check, usually on the fifth day, unless a day is given; later deaths do not show. Schedules are NCI's codes, taken here to give the interval after Q, in days (D) or hours (H), and the number of doses after X. Some schedules carry Z or #; the key to these is not given. For survival time, the PubChem record calls one and a half times the control and up active, and a quarter to a half above the control has no call in these data; cut-offs in other NCI protocols can differ. Some entries were tested several times; the values are given in rising order. Some T/C values are followed by the survivors on the day toxicity was checked, most often the fifth; without a count, all were alive then.
Tested on: L1210 leukemia ip in BDF1 mice, survival T/C
Assay: NCI In Vivo Anticancer Drug Screen. Data for tumor model L1210 Leukemia (intraperitoneal) in B6D2F1 (BDF1) mice
Settings: T/C endpoint: mean survival time, higher T/C = longer survival
[1] = dose: 100.0 mg/kg/injection, schedule: Q01DX001 (ip), vehicle: saline
[2] = dose: 200.0 mg/kg/injection, schedule: Q01DX001 (ip), vehicle: saline
[3] = dose: 400.0 mg/kg/injection, schedule: Q01DX001 (ip), vehicle: saline
[4] = dose: 100.0 mg/kg/injection, schedule: Q01DX009 (ip), vehicle: Klucel (hydroxypropylcellulose) (HPC)
[5] = dose: 200.0 mg/kg/injection, schedule: Q01DX009 (ip), vehicle: Klucel (hydroxypropylcellulose) (HPC)
[6] = dose: 400.0 mg/kg/injection, schedule: Q04DX003 (ip), vehicle: saline
[7] = dose: 200.0 mg/kg/injection, schedule: Q01DX005 (ip), vehicle: water
[8] = dose: 400.0 mg/kg/injection, schedule: Q01DX005 (ip), vehicle: water
[9] = dose: 100.0 mg/kg/injection, schedule: Q01DX009 (ip), vehicle: saline with Tween-80
[10] = dose: 400.0 mg/kg/injection, schedule: Q04DX003 (ip), vehicle: Klucel (hydroxypropylcellulose) (HPC)
[11] = dose: 400.0 mg/kg/injection, schedule: Q01DX009 (ip), vehicle: saline with Tween-80
[12] = dose: 200.0 mg/kg/injection, schedule: Q04DX002 (ip), vehicle: saline

In the case of `C=CCN(CC=C)P(=O)(N1CC1)N1CC1C` (stereo not given), the T/C (dose: 0.75 mg/kg/injection, schedule: Q01DX015 (ip), vehicle: carboxymethylcellulose (CMC)) is reported as 129 % of control, the T/C (dose: 1.5 mg/kg/injection, schedule: Q01DX015 (ip), vehicle: carboxymethylcellulose (CMC)) is reported as 129 % of control and the T/C (dose: 3.0 mg/kg/injection, schedule: Q01DX015 (ip), vehicle: carboxymethylcellulose (CMC)) is reported as 128 % of control. The T/C (dose: 5.0 mg/kg/injection, schedule: Q01DX001 (ip), vehicle: saline) was 131 % of control, the survivor count (dose: 12.0 mg/kg/injection, schedule: Q01DX009 (ip), vehicle: saline) was 6 of 6 and the survivor count (dose: 20.0 mg/kg/injection, schedule: Q01DX001 (ip), vehicle: saline) was 2 of 4. For the same compound, the survivor count (dose: 24.0 mg/kg/injection, schedule: Q01DX009 (ip), vehicle: saline) was 6 of 6, the survivor count (dose: 40.0 mg/kg/injection, schedule: Q01DX001 (ip), vehicle: saline) was 3 of 4 and the survivor count (dose: 48.0 mg/kg/injection, schedule: Q01DX009 (ip), vehicle: saline) was 1 of 6. The survivor count (dose: 50.0 mg/kg/injection, schedule: Q01DX001 (ip), vehicle: saline) was 0 of 6, the survivor count (dose: 80.0 mg/kg/injection, schedule: Q01DX001 (ip), vehicle: saline) was 4 of 4 and the survivor count [1] was 4 of 6. The survivor count [2] was 0 of 6 and the survivor count [3] was 0 of 6.
With `O=C1C(Cl)=C(N2CC2)C(=O)C(Cl)=C1N1CC1` the T/C (dose: 0.62 mg/kg/injection, schedule: Q01DX009 (ip), vehicle: saline) was 128 % of control [5 of 6 alive], the T/C (dose: 2.5 mg/kg/injection, schedule: Q01DX009 (ip), vehicle: saline) was 125 % of control and the survivor count (dose: 5.0 mg/kg/injection, schedule: Q01DX009 (ip), vehicle: saline) was 2 of 6. For the same compound, the survivor count (dose: 20.0 mg/kg/injection, schedule: Q01DX009 (ip), vehicle: saline) was 0 of 6.
With `COc1ccc(CN=C(N)CSS(=O)(=O)O)cc1` the survivor count (dose: 50.0 mg/kg/injection, schedule: Q04DX002 (ip), vehicle: Klucel (hydroxypropylcellulose) (HPC)) was 0 of 3.
`CC(C)(C)OC(=O)CC1(C)CCC2C1C(=O)OC2(C)C` (stereo not given) was tested, and the survivor count [2] was 2 of 6 and the survivor count [3] was 0 of 6.
In the case of `CNC(=O)CCC(NC(=O)c1ccc(N(C)Cc2cnc3nc(N)nc(N)c3n2)cc1)C(=O)O` (stereo not given), the T/C (dose: 50.0 mg/kg/injection, schedule: Q01DX009 (ip), vehicle: sodium bicarbonate) is reported as 132 % of control.
`Clc1ccc([PH+](c2ccc(Cl)cc2)c2ccc(Cl)cc2)cc1.Clc1ccc([PH+](c2ccc(Cl)cc2)c2ccc(Cl)cc2)cc1.[Cl][Hg][Cl]` was tested, and the survivor count [4] was 3 of 3 and the survivor count [5] was 3 of 3.
In the case of `CC(C)NNCCO`, the survivor count (dose: 200.0 mg/kg/injection, schedule: Q01DX009 (ip), vehicle: saline) is reported as 3 of 6 and the survivor count [6] is reported as 2 of 6.
For `CNC(=O)NC(C)=C(C#N)C#N`, the survivor count (dose: 300.0 mg/kg/injection, schedule: Q01DX001 (ip), vehicle: saline) was 0 of 6.
`CC(C)(O)CCNc1ncnc2c1ncn2C1OC(CO)C(O)C1O` (stereo not given) was tested, and the T/C [7] was 128 % of control, the survivor count [7] was 2 of 6 and the T/C [8] was 138 % of control. For the same compound, the survivor count [8] was 3 of 6.
In the case of `CCOC(=O)C1=C(C)NC(C)=C(C(=O)OCC)C1c1ccccc1[N+](=O)[O-]`, the survivor count (dose: 50.0 mg/kg/injection, schedule: Q01DX009 (ip), vehicle: saline with Tween-80) is reported as 2 of 6, the survivor count [9] is reported as 0 of 6 and the survivor count (dose: 200.0 mg/kg/injection, schedule: Q04DX003 (ip), vehicle: saline with Tween-80) is reported as 0 of 6. The survivor count (dose: 400.0 mg/kg/injection, schedule: Q04DX003 (ip), vehicle: saline with Tween-80) was 1 of 6.
In the case of `CCCCCCCCCCCC(=O)NC(=S)Nc1cc([N+](=O)[O-])ccc1Cl`, the survivor count (dose: 100.0 mg/kg/injection, schedule: Q04DX003 (ip), vehicle: Klucel (hydroxypropylcellulose) (HPC)) is reported as 6 of 6, the survivor count (dose: 200.0 mg/kg/injection, schedule: Q04DX003 (ip), vehicle: Klucel (hydroxypropylcellulose) (HPC)) is reported as 6 of 6 and the survivor count [10] is reported as 6 of 6.
With `CCCCCCCCCC(O)CCCCC` (stereo not given) the survivor count [11] was 1 of 6.
`CCNC(C)(C)C(Cl)c1cccs1` (stereo not given) was tested, and the survivor count (dose: 400.0 mg/kg/injection, schedule: Q01DX009 (ip), vehicle: saline) was 0 of 6 and the survivor count [6] was 0 of 6.
With `C=CCOC(=O)CCCCCCCC(=O)OCC=C` the survivor count (dose: 44.0 mg/kg/injection, schedule: Q01DX Z (ip), vehicle: methylcellulose (MC)) was 6 of 6, the survivor count (dose: 66.0 mg/kg/injection, schedule: Q01DX Z (ip), vehicle: methylcellulose (MC)) was 6 of 6 and the survivor count (dose: 100.0 mg/kg/injection, schedule: Q01DX Z (ip), vehicle: methylcellulose (MC)) was 6 of 6.
For `CC(O)/C(=N/Nc1ccc([N+](=O)[O-])cc1[N+](=O)[O-])C(=O)O` (stereo not given), the survivor count [10] was 3 of 6.
For `Cc1cccnc1C(=O)O.[Cu+2]`, the survivor count [1] was 0 of 4, the survivor count [2] was 0 of 4 and the survivor count [3] was 0 of 4.
`CC(=O)N(C)c1ccc(NC(=O)Nc2cccc(F)c2)cc1` was tested, and the survivor count [9] was 6 of 6, the survivor count (dose: 200.0 mg/kg/injection, schedule: Q01DX009 (ip), vehicle: saline with Tween-80) was 5 of 5 and the survivor count [11] was 6 of 6.
`CSc1nc(N)nc2c1ncn2C1OC(CO)C(O)C1O` (stereo not given) was tested, and the T/C (dose: 300.0 mg/kg/injection, schedule: Q01DX009 (ip), vehicle: saline) was 131 % of control, the T/C [3] was 125 and 126 % of control and the T/C (dose: 600.0 mg/kg/injection, schedule: Q01DX001 (ip), vehicle: saline) was 132 % of control [4 of 6 alive].
For `O=C(COc1ccc(Cl)cc1Cl)NCCSCc1ccccc1`, the survivor count [5] was 6 of 6.
For `CN(C)/N=N/c1ncn(C2CCCO2)c1C(N)=O` (stereo not given), the T/C (dose: 100.0 mg/kg/injection, schedule: Q01DX005 (ip), vehicle: saline) was 125 % of control.
In the case of `CC(=O)OCC(C)CCC(C)C(C)C1C(C)CC2C3CC=C4CC(OC(C)=O)CCC4(C)C3CCC21C` (stereo not given), the survivor count (dose: 50.0 mg/kg/injection, schedule: Q01DX009 (ip), vehicle: Klucel (hydroxypropylcellulose) (HPC)) is reported as 3 of 3, the survivor count [4] is reported as 3 of 3 and the survivor count [5] is reported as 3 of 3.
In the case of `NC(=O)Nc1ccc(Cl)cc1`, the survivor count [11] is reported as 3 of 6.
`CCNCCC[P+](c1ccccc1)(c1ccccc1)c1ccccc1` was tested, and the survivor count [12] was 0 of 3 and the survivor count (dose: 400.0 mg/kg/injection, schedule: Q04DX002 (ip), vehicle: saline) was 0 of 3.
In the case of `CCC(COC(=O)c1ccc(N)cc1)NC(CC(C)C)CC(C)C` (stereo not given), the survivor count (dose: 150.0 mg/kg/injection, schedule: Q01DX001 (ip), vehicle: carboxymethylcellulose (CMC)) is reported as 5 of 6.
`COc1ccc(C2CC(=O)OC(=O)C2)cc1` was tested, and the survivor count (dose: 100.0 mg/kg/injection, schedule: Q04DX003 (ip), vehicle: saline with Tween-80) was 6 of 6.
`C1=NC(c2ccccc2)=CN(C2CCCCCCC2)C1(c1ccccc1)C1CCCCCCC1` (stereo not given) was tested, and the survivor count [12] was 2 of 3.

From PubChem BioAssay AID248 (DTP/NCI, 2004)
